In this test the target is CD38-Fc protein (produced by LakePharma) (UniProt P28907). The experiment in a line: flow cytometry, CD38-Fc fusion protein staining of purified CD38-deficient T cells transfected with CAR mRNA (FIG. 15).

Protein sequences, listed by entry. Tags and fused reporters are not part of them. Residues count along the entry.
UniProt P28907, residues 43-300: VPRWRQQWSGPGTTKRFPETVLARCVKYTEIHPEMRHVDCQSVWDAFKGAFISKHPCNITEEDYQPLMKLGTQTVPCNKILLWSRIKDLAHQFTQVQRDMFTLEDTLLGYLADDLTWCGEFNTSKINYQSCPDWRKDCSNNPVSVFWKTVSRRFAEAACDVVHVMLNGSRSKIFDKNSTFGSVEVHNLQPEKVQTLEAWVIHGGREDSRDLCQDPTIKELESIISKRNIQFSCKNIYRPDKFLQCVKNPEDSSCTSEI

Results are given in words; binding and its absence hold for the method and conditions named. Some binding calls cover weakened binding; strength is not graded here.

B1: 13F11-V1 CAR (protein)
chain: QIQLVQSGPELKKPGETVKISCKASGYTFKKYGMNWVKQAPGKGLKWMGWINTNTGEPTYAEEFKGRFAFSLETSASTAYLQINNLKNEDTATYFCARWYYGSTPSSYTMDYWGQGTSVTVSSGGGGSGGGGSGGGGSETTVTQSPASLSVATGEKVTIRCITSTDIDDDMNWYQQKPGEPPKVLISEGNTLRPGVPSRFSSSGYGTDFVFTIENTLSEDVADYYCLQSNNMPYTFGGGTKLEIKGLAVSTISSFFPPGYQIYIWAPLAGTCGVLLLSLVITLYCKRGRKKLLYIFKQPFMRPVQTTQEEDGCSCRFPEEEEGGCELRVKFSRSADAPAYQQGQNQLYNELNLGRREEYDVLDKRRGRDPEMGGKPRRKNPQEGLYNELQKDKMAEAYSEIGMKGERRRGKGHDGLYQGLSTATKDTYDALHMQALPPR
Regarding B1, the binding result was “binds”.

B2: 28F5-V1 CAR (protein)
chain: QIQLVQSGPELKKPGETVKISCKASGYTFTKYGMNWVKQTPGKGLKWMGWINTNSGEPTYAEEFKGRFAFSLETSASTAYLQINNLKNEDTATYFCARGAYYRYDGEVSYYAMDYWGQGTSVTVSSGGGGSGGGGSGGGGSQIILTQSPAIMSASLGERVTMTCTATSSLSSSYLHWYQQKPGSSPKLWIYSTSHLASGVPARFSGGGSGTSYSLTISSMEAEDAATYYCHQYHLSPYTFGGGTKLEIKGLAVSTISSFFPPGYQIYIWAPLAGTCGVLLLSLVITLYCKRGRKKLLYIFKQPFMRPVQTTQEEDGCSCRFPEEEEGGCELRVKFSRSADAPAYQQGQNQLYNELNLGRREEYDVLDKRRGRDPEMGGKPRRKNPQEGLYNELQKDKMAEAYSEIGMKGERRRGKGHDGLYQGLSTATKDTYDALHMQALPPR
Turning to B2, the binding entry was “binds”.

B3: 16B5-V1 CAR (protein)
chain: QAYLQQSGAELVRSGASVKMSCKASGYTFTSYNLHWVKQTPGQGLEWIGYIYPGNGGTNYNQKFKGKATLTADTSSSTAYMQISSLTSEDSAVYFCARGGIYYYGSSLDYWGQGTTLTVSSGGGGSGGGGSGGGGSNIVLTQSPASLAVSLGQRATISCRASESVDNYGTTFMYWYQQKPGQPPKLLIYLASNLESGVPARFSGSGSGTDFTLTIDPVEADDAATYYCQQNKEDPWTFGGGTKLEIKGLAVSTISSFFPPGYQIYIWAPLAGTCGVLLLSLVITLYCKRGRKKLLYIFKQPFMRPVQTTQEEDGCSCRFPEEEEGGCELRVKFSRSADAPAYQQGQNQLYNELNLGRREEYDVLDKRRGRDPEMGGKPRRKNPQEGLYNELQKDKMAEAYSEIGMKGERRRGKGHDGLYQGLSTATKDTYDALHMQALPPR
As to B3, the binding entry was “binds”.

B4: 25A10-V1 CAR (protein)
chain: EVQLQQSGAELVRPGASVKLSCTASGFNIKDSLIHWVKQRPEQGLEWIGWIDPEDDKTKYAPKFQDKATLTADTSSNTAYLQLSTLTSEDTAIYYCVSRYINYYFAYWGQGTTLTVSSGGGGSGGGGSGGGGSDIVMTQSPSSLTVTAGEKVTMSCKSSQSLLHSGNQRNYLTWYQQKPGQPPKLLIYWASTRESGVPDRFTGSGSGTDFTLTISSVQAEDLAVYYCQNDYDYPYTFGGGTKLEIKGLAVSTISSFFPPGYQIYIWAPLAGTCGVLLLSLVITLYCKRGRKKLLYIFKQPFMRPVQTTQEEDGCSCRFPEEEEGGCELRVKFSRSADAPAYQQGQNQLYNELNLGRREEYDVLDKRRGRDPEMGGKPRRKNPQEGLYNELQKDKMAEAYSEIGMKGERRRGKGHDGLYQGLSTATKDTYDALHMQALPPR
B4: the binding result is “binds”.

Values taken from patent publication US20180236053A1.
